{"source": "PubChem BioAssay AID1224826, NIAID – 2016", "purpose": "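Genes that change LPS-induced Tnf promoter activity in mouse macrophages when knocked down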 (primary screen)", "cell system": "RAW264.7 G9 macrophages from mouse bearing reporters for p65 (GFP) and the Tnf promoter (mCherry)", "knock-down reagent": "siRNA pool against mouse genes, 100 nM", "timing": "16 h of LPS stimulation, after 2 days of siRNA transfection", "challenge": "bacterial lipopolysaccharide (Salmonella minnesota R595), 10 ng/ml", "detection": "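Nuclear mCherry signal of the Tnf promoter reporter measured by imaging after background removal, scaled to each plate median and turned into robust z-scores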", "scale": "Tnf reporter robust z-score: higher = stronger Tnf promoter reporter signal after LPS", "hit rule": "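Called active when robust z-score is at most -1.3, matching the median of the Tlr4 knock-down control, or over 3; control wells and wells with under 50 cells never active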", "calls": "active = Tnf reporter clearly lowered or raised; inactive = no clear change in Tnf reporter", "note": "Here is one part, drawn at random, of about 17,000 deposited reagents. About 1,110 of all reagents (6.6%) were called active. 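Active means lowered or raised reporter signal; replicate intensities are raw and not normalised per plate.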 Further read-outs or replicates are left out here."}
{"gene symbol": "Aplnr", "Tnf reporter robust z-score": 0.29, "fewer than 50 cells in well": "enough cells in well", "Outcome": "inactive"}
{"gene symbol": "Cyp2d9", "fewer than 50 cells in well": "fewer than 50 cells per well; well left out of calls", "Outcome": "inactive"}
{"gene symbol": "Nucb2", "Tnf reporter robust z-score": 0.62, "fewer than 50 cells in well": "enough cells in well", "Outcome": "inactive"}
{"gene symbol": "Klk1b4", "Tnf reporter robust z-score": -0.9, "fewer than 50 cells in well": "enough cells in well", "Outcome": "inactive"}
{"gene symbol": "Csta2", "Tnf reporter robust z-score": 0.87, "fewer than 50 cells in well": "enough cells in well", "Outcome": "inactive"}
{"gene symbol": "Slc67a1", "Tnf reporter robust z-score": 2.44, "fewer than 50 cells in well": "enough cells in well", "Outcome": "inactive"}
{"gene symbol": "Lrif1", "Tnf reporter robust z-score": 2.25, "fewer than 50 cells in well": "enough cells in well", "Outcome": "inactive"}
{"gene symbol": "Psmd9", "Tnf reporter robust z-score": 1.32, "fewer than 50 cells in well": "enough cells in well", "Outcome": "inactive"}
{"gene symbol": "Tmem270", "fewer than 50 cells in well": "fewer than 50 cells per well; well left out of calls", "Outcome": "inactive"}
{"gene symbol": "Ndel1", "Tnf reporter robust z-score": -0.58, "fewer than 50 cells in well": "enough cells in well", "Outcome": "inactive"}
{"gene symbol": "Ncoa3", "Tnf reporter robust z-score": -0.16, "fewer than 50 cells in well": "enough cells in well", "Outcome": "inactive"}
{"gene symbol": "Gtf2e1", "Tnf reporter robust z-score": -0.82, "fewer than 50 cells in well": "enough cells in well", "Outcome": "inactive"}
{"gene symbol": "Naxe", "Tnf reporter robust z-score": 0.95, "fewer than 50 cells in well": "enough cells in well", "Outcome": "inactive"}
{"gene symbol": "Asb4", "Tnf reporter robust z-score": 0.46, "fewer than 50 cells in well": "enough cells in well", "Outcome": "inactive"}
{"gene symbol": "Or5b123", "Tnf reporter robust z-score": 0.5, "fewer than 50 cells in well": "enough cells in well", "Outcome": "inactive"}
{"gene symbol": "Chl1", "Tnf reporter robust z-score": -0.34, "fewer than 50 cells in well": "enough cells in well", "Outcome": "inactive"}
{"gene symbol": "Zfp280b", "Tnf reporter robust z-score": 0.44, "fewer than 50 cells in well": "enough cells in well", "Outcome": "inactive"}
{"gene symbol": "Or5b116", "Tnf reporter robust z-score": 1.53, "fewer than 50 cells in well": "enough cells in well", "Outcome": "inactive"}
{"gene symbol": "Mnat1", "Tnf reporter robust z-score": 0.32, "fewer than 50 cells in well": "enough cells in well", "Outcome": "inactive"}
{"gene symbol": "Dnaaf4", "Tnf reporter robust z-score": -0.96, "fewer than 50 cells in well": "enough cells in well", "Outcome": "inactive"}
{"gene symbol": "Psmd14", "Tnf reporter robust z-score": 2.25, "fewer than 50 cells in well": "enough cells in well", "Outcome": "inactive"}

3 neighbouring entries already listed, for reference:
{"gene symbol": "Gtf2e1", "Tnf reporter robust z-score": -0.82, "fewer than 50 cells in well": "enough cells in well", "Outcome": "inactive"}
{"gene symbol": "Naxe", "Tnf reporter robust z-score": 0.95, "fewer than 50 cells in well": "enough cells in well", "Outcome": "inactive"}
{"gene symbol": "Asb4", "Tnf reporter robust z-score": 0.46, "fewer than 50 cells in well": "enough cells in well", "Outcome": "inactive"}
